No constants are given. Whether binding was seen depends on the method and setting. Some entries that bind do so weakly or less than the wild type. Tags and fused reporters may be left off the sequences shown.
Target: T1, TOPLESS (TPL) of Arabidopsis, yeast two-hybrid fusion (Arabidopsis thaliana), Q94AI7
T1 chain: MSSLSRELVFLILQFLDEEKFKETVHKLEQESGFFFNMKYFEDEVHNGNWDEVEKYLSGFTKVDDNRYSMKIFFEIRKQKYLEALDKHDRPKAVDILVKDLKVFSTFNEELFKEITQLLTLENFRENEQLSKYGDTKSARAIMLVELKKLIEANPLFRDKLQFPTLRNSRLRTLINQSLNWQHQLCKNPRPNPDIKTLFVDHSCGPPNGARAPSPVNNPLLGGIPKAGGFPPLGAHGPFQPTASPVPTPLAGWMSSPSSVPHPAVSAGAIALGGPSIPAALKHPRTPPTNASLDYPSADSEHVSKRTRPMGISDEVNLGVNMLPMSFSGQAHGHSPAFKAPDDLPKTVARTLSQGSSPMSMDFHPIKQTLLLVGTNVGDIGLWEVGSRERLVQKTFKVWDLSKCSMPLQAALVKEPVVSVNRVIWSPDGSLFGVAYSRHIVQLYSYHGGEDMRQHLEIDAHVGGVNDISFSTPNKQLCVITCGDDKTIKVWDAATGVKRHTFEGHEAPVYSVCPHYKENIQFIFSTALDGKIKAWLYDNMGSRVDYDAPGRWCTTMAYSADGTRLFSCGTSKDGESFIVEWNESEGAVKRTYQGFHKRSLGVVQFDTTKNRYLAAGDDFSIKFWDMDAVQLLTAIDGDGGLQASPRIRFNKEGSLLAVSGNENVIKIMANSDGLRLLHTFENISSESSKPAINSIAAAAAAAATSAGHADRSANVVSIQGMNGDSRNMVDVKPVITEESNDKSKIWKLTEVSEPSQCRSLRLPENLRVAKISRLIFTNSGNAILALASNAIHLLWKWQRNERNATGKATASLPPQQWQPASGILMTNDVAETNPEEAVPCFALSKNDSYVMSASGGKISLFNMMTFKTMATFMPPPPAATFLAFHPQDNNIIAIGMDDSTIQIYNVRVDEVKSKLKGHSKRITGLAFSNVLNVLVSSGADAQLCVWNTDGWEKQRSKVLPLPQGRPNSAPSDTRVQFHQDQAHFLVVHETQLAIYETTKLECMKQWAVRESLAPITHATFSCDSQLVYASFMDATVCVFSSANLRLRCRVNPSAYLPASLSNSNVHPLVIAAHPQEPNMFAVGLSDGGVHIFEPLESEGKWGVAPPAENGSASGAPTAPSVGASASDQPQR
Assay: two-hybrid; Gal4 AD-X (yeast Y8800) and DB-X (Y8930) fusions mated; growth on SC media lacking Leu, Trp and His (3AT for stringency) or also Ade; tested in both directions
Settings: remark: other sources report otherwise

binding: binds
B1: TOPLESS (TPL) of Arabidopsis, yeast two-hybrid fusion, Q94AI7 1-1131 (protein)
chain: MSSLSRELVFLILQFLDEEKFKETVHKLEQESGFFFNMKYFEDEVHNGNWDEVEKYLSGFTKVDDNRYSMKIFFEIRKQKYLEALDKHDRPKAVDILVKDLKVFSTFNEELFKEITQLLTLENFRENEQLSKYGDTKSARAIMLVELKKLIEANPLFRDKLQFPTLRNSRLRTLINQSLNWQHQLCKNPRPNPDIKTLFVDHSCGPPNGARAPSPVNNPLLGGIPKAGGFPPLGAHGPFQPTASPVPTPLAGWMSSPSSVPHPAVSAGAIALGGPSIPAALKHPRTPPTNASLDYPSADSEHVSKRTRPMGISDEVNLGVNMLPMSFSGQAHGHSPAFKAPDDLPKTVARTLSQGSSPMSMDFHPIKQTLLLVGTNVGDIGLWEVGSRERLVQKTFKVWDLSKCSMPLQAALVKEPVVSVNRVIWSPDGSLFGVAYSRHIVQLYSYHGGEDMRQHLEIDAHVGGVNDISFSTPNKQLCVITCGDDKTIKVWDAATGVKRHTFEGHEAPVYSVCPHYKENIQFIFSTALDGKIKAWLYDNMGSRVDYDAPGRWCTTMAYSADGTRLFSCGTSKDGESFIVEWNESEGAVKRTYQGFHKRSLGVVQFDTTKNRYLAAGDDFSIKFWDMDAVQLLTAIDGDGGLQASPRIRFNKEGSLLAVSGNENVIKIMANSDGLRLLHTFENISSESSKPAINSIAAAAAAAATSAGHADRSANVVSIQGMNGDSRNMVDVKPVITEESNDKSKIWKLTEVSEPSQCRSLRLPENLRVAKISRLIFTNSGNAILALASNAIHLLWKWQRNERNATGKATASLPPQQWQPASGILMTNDVAETNPEEAVPCFALSKNDSYVMSASGGKISLFNMMTFKTMATFMPPPPAATFLAFHPQDNNIIAIGMDDSTIQIYNVRVDEVKSKLKGHSKRITGLAFSNVLNVLVSSGADAQLCVWNTDGWEKQRSKVLPLPQGRPNSAPSDTRVQFHQDQAHFLVVHETQLAIYETTKLECMKQWAVRESLAPITHATFSCDSQLVYASFMDATVCVFSSANLRLRCRVNPSAYLPASLSNSNVHPLVIAAHPQEPNMFAVGLSDGGVHIFEPLESEGKWGVAPPAENGSASGAPTAPSVGASASDQPQR

Source: publication PMC7446885
